These are yes or no findings as the source states them, for the method shown. Binding seen in cells or lysates may run through a third protein. For some assays here: A result given as binding can be weak or reduced; the word gives no strength. For some assays here: Tags and fused reporters may be left off the sequences shown.
Experiments:
[1] = target: T1, GFP-tagged alpha-dystrobrevin 1, full length (UniProt Q9D2N4); test: co-IP; FLAG-Arhgef5 and GFP-aDB1 coexpressed in HEK293T for 24 h; lysis buffer with 0.1% Nonidet P-40, 150 mM NaCl, 1 mM sodium pervanadate; Dynabeads-protein G with rabbit anti-GFP (1 h, 4°C) or rabbit anti-FLAG or rabbit IgG control (overnight, 4°C); immunoblot
T1 sequence: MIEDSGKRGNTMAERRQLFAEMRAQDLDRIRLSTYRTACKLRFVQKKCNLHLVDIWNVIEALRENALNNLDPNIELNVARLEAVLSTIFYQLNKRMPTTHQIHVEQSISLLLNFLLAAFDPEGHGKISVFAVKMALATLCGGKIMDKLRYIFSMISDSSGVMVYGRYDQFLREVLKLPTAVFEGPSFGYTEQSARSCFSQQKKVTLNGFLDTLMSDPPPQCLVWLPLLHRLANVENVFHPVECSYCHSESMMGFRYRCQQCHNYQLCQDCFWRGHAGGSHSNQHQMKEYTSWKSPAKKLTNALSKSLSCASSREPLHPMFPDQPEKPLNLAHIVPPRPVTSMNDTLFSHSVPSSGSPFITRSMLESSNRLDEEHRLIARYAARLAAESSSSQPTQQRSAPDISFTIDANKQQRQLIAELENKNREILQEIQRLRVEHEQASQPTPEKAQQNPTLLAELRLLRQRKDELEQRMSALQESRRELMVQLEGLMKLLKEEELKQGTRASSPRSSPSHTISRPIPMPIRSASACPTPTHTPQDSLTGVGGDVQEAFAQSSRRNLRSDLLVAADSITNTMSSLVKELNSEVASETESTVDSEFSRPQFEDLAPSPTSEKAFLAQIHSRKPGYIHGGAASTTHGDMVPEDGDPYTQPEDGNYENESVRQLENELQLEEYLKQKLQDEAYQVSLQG

[2] = target: T2, aDB1-derived unphosphorylated control peptide Y713 (DEST-Biotin-Ahx-…-NH2); test: pull-down; biotinylated peptides on streptavidin-coupled Dynabeads M-280; Arhgef5 C-terminal (HEK293T lysate by the legend, recombinant GST fusion by the methods) incubated overnight at 4°C in 20 mM Hepes, 150 mM NaCl, 0.5 mM EDTA, 10% glycerol, 0.05% Nonidet P-40, 1 mM DTT, pH 7.9; eluates by immunoblot; only the target purified
T2 sequence (peptide, DEST-Biotin-Ahx on the N-terminus; C-terminal amide): TQPEDGNYENESVRQ

Substance: FLAG-tagged Arhgef5, full length
- binding [1]: binds

Substance: FLAG-Arhgef5 C-terminal isoform (domain or fragment)
- binding [2]: no binding

Source: paper PMC7299196
